Measurements taken from publication PMC12435343.
No constants are given. Whether binding was seen depends on the method and setting. Some results given as binding are weak or reduced against the parent protein; the word gives no strength.

Tests used:
[1] = target: Nerve injury-induced protein 1 (NINJ1), mouse, endogenous in renal tissue (mouse (endogenous in kidney tissue of C57BL/6J mice)) (UniProt O70131); experiment: native gel or EMSA; Native-PAGE of lysates of HK-2 cells and kidney tissues (150 mM NaCl, 1% digitonin, 50 mM Tris pH 7.5, protease inhibitor), blotted for endogenous NINJ1; mice sham or IRI (also AAV9-shNinj1, TDE); HK-2 normoxia or H/R (also siNINJ1, 5 mM glycine, ELK1 S383A, TDE)
[2] = target: Nerve injury-induced protein 1 (NINJ1), human, endogenous in HK-2 cells (human (endogenous in HK-2)) (UniProt Q92982); experiment: as above

Binder | binding [1] | binding [2]
Nerve injury-induced protein 1 (NINJ1), mouse, endogenous in renal tissue (protein, UniProt O70131 1-152) MESGTEEYELNGDLRPGSPGSPDALPPRWGLRNRPINVNHYANKKSAAESMLDIALLMANASQLKAVVEQGNDFAFFVPLVVLISISLVLQIGVGVLLIFLVKYDLNNPAKHAKLDFLNNLATGLVFIIVVVNIFITAFGVQKPVMDVAPRQ | binds | –
Nerve injury-induced protein 1 (NINJ1), human, endogenous in HK-2 cells (protein, UniProt Q92982 1-152) MDSGTEEYELNGGLPPGTPGSPDASPARWGWRHGPINVNHYASKKSAAESMLDIALLMANASQLKAVVEQGPSFAFYVPLVVLISISLVLQIGVGVLLIFLVKYDLNNPAKHAKLDFLNNLATGLVFIIVVVNIFITAFGVQKPLMDMAPQQ | – | binds
